Reference: US20070027127A1, “Treatment of inflammatory oral diseases with a combination of inhibitors of TNF-alpha and immunosuppressive agents” (priority 2000, published 2007)
For at least one compound, name, drawing or mass did not settle the structure.

Test system: major RAS (recurrent aphthous stomatitis) mouth ulcers
Test: Clinical example: treatment of a human patient with longstanding major RAS
Type: in vivo
Procedure: There follows a description of the successful treatment of a human patient according to the invention.
The patient was a healthy person who had longstanding major RAS. The ulcers were located throughout the patient's mouth and oropharynx. […] The patient, prior to this visit, had been treated with numerous forms of conventional therapy, including systemic steroids and other pharmaceutical agents. All treatments had failed.
The patient was treated according to the invention as follows. The patient was given PTX tablets (one 400 mg tablet per day), combined with a rinse of the topical steroid DECADRON®.

In the case of `C[C@@H]1C[C@H]2[C@@H]3CCC4=CC(=O)C=C[C@]4(C)[C@@]3(F)[C@@H](O)C[C@]2(C)[C@@]1(O)C(=O)CO` [DECADRON®, Dexamethasone], the “Mouth ulcer status reported by the patient” value (approximately six months after initial treatment with PTX tablets plus DECADRON® rinse, then topical DECADRON® rinse on individual lesions) is reported as “completely without mouth ulcers for the first time in eight years” and the “Resolution of the patient's major lesions” value (one patient, major RAS, PTX tablets (one 400 mg tablet per day) combined with a DECADRON® rinse, prior conventional therapies failed) is reported as “completely resolved all of the patient's major lesions”.
